Test results reported in paper doi:10.1101/2025.02.04.636234.
Like-named read-outs stand apart in the source and are kept apart here. These are yes or no findings as the source states them, for the method shown. For some of these results: In cells and extracts the contact can be indirect. Some binding calls cover weakened binding; strength is not graded here. Sequences can lack the tags named with a protein.

Amino acid sequences for entries named in this document (tags omitted).
UniProt Q9FTA2: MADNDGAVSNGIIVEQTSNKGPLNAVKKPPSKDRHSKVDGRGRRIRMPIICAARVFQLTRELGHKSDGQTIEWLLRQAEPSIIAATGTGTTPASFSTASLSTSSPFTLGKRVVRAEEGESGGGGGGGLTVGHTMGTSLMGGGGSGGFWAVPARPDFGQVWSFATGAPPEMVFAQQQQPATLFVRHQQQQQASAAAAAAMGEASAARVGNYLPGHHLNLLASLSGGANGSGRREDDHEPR
UniProt F4KGY6: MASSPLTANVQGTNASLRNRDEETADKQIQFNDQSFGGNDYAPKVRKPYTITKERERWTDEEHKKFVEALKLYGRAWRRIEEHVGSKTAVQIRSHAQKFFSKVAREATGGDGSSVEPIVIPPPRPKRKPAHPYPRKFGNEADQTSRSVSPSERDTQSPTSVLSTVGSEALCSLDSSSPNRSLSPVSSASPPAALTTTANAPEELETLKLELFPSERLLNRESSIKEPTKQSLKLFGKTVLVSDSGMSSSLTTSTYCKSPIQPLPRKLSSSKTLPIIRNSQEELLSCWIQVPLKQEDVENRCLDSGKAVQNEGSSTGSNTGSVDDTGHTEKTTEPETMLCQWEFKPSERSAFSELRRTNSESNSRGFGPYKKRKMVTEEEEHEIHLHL
UniProt Q9LSD5: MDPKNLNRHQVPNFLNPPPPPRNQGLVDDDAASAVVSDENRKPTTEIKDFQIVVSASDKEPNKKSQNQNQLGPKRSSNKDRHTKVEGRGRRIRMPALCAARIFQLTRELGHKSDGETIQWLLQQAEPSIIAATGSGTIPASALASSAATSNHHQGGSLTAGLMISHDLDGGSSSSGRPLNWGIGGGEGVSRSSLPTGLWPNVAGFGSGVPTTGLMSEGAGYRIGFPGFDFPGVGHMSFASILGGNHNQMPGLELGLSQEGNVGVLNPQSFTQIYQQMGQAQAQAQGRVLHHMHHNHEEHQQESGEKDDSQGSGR
UniProt Q9C7G4: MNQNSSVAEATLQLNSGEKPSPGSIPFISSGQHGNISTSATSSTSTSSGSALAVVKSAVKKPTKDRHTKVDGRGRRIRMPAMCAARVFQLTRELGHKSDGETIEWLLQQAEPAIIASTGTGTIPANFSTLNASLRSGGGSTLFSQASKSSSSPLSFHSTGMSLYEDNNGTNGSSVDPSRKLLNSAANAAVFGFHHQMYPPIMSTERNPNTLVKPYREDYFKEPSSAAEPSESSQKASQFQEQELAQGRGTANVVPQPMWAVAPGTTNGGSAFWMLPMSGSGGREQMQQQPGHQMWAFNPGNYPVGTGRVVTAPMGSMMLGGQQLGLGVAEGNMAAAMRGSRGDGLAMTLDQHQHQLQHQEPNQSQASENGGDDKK

B1: PSEUDO RESPONSE REGULATOR 9 (two-hybrid prey fusion) (protein, UniProt Q8L500 1-468)
chain: MGEIVVLSSDDGMETIKNRVKSSEVVQWEKYLPKTVLRVLLVESDYSTRQIITALLRKCCYKVVAVSDGLAAWEVLKEKSHNIDLILTELDLPSISGFALLALVMEHEACKNIPVIMMSSQDSIKMVLKCMLRGAADYLIKPMRKNELKNLWQHVWRRLTLRDDPTAHAQSLPASQHNLEDTDETCEDSRYHSDQGSGAQAINYNGHNKLMENGKSVDERDEFKETFDVTMDLIGGIDKRPDSIYKDKSRDECVGPELGLSLKRSCSVSFENQDESKHQKLSLSDASAFSRFEESKSAEKAVVALEESTSGEPKTPTESHEKLRKVTSDQGSATTSSNQENIGSSSVSFRNQVLQSTVTNQKQDSPIPVESNREKAASKEVEAGSQSTNEGIAGQSSSTEKPKEEESAKQRWSRSQREAALMKFRLKRKDRCFDKKVRYQSRKKLAEQRPRVKGQFVRTVNSDASTKS
B2: LATE ELONGATED HYPOCOTYL (two-hybrid prey fusion) (protein, UniProt Q6R0H1 1-645)
chain: MDTNTSGEELLAKARKPYTITKQRERWTEDEHERFLEALRLYGRAWQRIEEHIGTKTAVQIRSHAQKFFTKLEKEAEVKGIPVCQALDIEIPPPRPKRKPNTPYPRKPGNNGTSSSQVSSAKDAKLVSSASSSQLNQAFLDLEKMPFSEKTSTGKENQDENCSGVSTVNKYPLPTKQVSGDIETSKTSTVDNAVQDVPKKNKDKDGNDGTTVHSMQNYPWHFHADIVNGNIAKCPQNHPSGMVSQDFMFHPMREETHGHANLQATTASATTTASHQAFPACHSQDDYRSFLQISSTFSNLIMSTLLQNPAAHAAATFAASVWPYASVGNSGDSSTPMSSSPPSITAIAAATVAAATAWWASHGLLPVCAPAPITCVPFSTVAVPTPAMTEMDTVENTQPFEKQNTALQDQNLASKSPASSSDDSDETGVTKLNADSKTNDDKIEEVVVTAAVHDSNTAQKKNLVDRSSCGSNTPSGSDAETDALDKMEKDKEDVKETDENQPDVIELNNRKIKMRDNNSNNNATTDSWKEVSEEGRIAFQALFARERLPQSFSPPQVAENVNRKQSDTSMPLAPNFKSQDSCAADQEGVVMIGVGTCKSLKTRQTGFKPYKRCSMEVKESQVGNINNQSDEKVCKRLRLEGEAST
B3: mTurq-TTG1 (protein, UniProt Q9XGN1 1-341)
chain: MDNSAPDSLSRSETAVTYDSPYPLYAMAFSSLRSSSGHRIAVGSFLEDYNNRIDILSFDSDSMTVKPLPNLSFEHPYPPTKLMFSPPSLRRPSSGDLLASSGDFLRLWEINEDSSTVEPISVLNNSKTSEFCAPLTSFDWNDVEPKRLGTCSIDTTCTIWDIEKSVVETQLIAHDKEVHDIAWGEARVFASVSADGSVRIFDLRDKEHSTIIYESPQPDTPLLRLAWNKQDLRYMATILMDSNKVVILDIRSPTMPVAELERHQASVNAIAWAPQSCKHICSGGDDTQALIWELPTVAGPNGIDPMSVYSAGSEINQLQWSSSQPDWIGIAFANKMQLLRV
B4: REVEILLE8 (two-hybrid prey fusion) (protein, UniProt Q8RWU3 1-298)
chain: MSSSPSRNPTNAEAPPPPPTSTDAVAEGSSKKVRKPYTITKSRESWTEEEHDKFLEALQLFDRDWKKIEDFVGSKTVIQIRSHAQKYFLKVQKNGTLAHVPPPRPKRKAAHPYPQKASKNAQMPLQVSTSFTTTRNGDMPGYASWDDASMLLNRVISPQHELATLRGAEADIGSKGLLNVSSPSTSGMGSSSRTVSGSEIVRKAKQPPVLHGVPDFAEVYNFIGSVFDPETRGHVEKLKEMDPINFETVLLLMRNLTVNLSNPDLESTRKVLLSYDNVTTELPSVVSLVKNSTSDKSA

What was measured:
[1] = molecular target: T1, LIGHT REGULATED WD2 (GAL4-BD fusion) (Arabidopsis thaliana (Col-0 cDNA)) (UniProt Q38960); assay: two-hybrid
T1 sequence: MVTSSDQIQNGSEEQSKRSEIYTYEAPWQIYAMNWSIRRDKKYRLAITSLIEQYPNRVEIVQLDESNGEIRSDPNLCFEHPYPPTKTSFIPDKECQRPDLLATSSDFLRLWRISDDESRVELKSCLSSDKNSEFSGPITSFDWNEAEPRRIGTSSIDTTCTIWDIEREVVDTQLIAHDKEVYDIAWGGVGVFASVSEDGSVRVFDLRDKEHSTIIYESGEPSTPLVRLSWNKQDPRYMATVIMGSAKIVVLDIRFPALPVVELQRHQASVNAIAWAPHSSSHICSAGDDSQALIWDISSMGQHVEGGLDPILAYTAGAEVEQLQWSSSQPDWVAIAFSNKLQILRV

[2] = molecular target: T2, … TESTA GLABRA 1 (GAL4-BD fusion) (Arabidopsis thaliana (Col-0 cDNA)) (UniProt Q9XGN1); assay: two-hybrid
T2 sequence: B3 chain

[3] = molecular target: T3, LIGHT REGULATED WD1 (GAL4-BD fusion) (Arabidopsis thaliana (Col-0 cDNA)) (UniProt Q9LPV9); assay: two-hybrid
T3 sequence: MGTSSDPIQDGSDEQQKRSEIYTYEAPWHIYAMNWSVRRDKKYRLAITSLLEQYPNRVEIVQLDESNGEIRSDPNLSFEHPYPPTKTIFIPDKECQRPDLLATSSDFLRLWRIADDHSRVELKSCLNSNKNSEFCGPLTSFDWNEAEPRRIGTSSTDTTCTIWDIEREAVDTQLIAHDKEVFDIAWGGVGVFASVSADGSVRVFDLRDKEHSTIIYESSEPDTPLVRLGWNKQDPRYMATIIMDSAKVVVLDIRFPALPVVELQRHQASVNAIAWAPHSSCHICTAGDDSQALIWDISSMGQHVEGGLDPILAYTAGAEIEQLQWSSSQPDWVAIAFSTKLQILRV

[4] = molecular target: T2, … TESTA GLABRA 1 (GAL4-BD fusion) (Arabidopsis thaliana (Col-0 cDNA)); assay: two-hybrid; remark: listed apart in the source
[5] = molecular target: T4, PRR9-HA (Arabidopsis thaliana) (UniProt Q8L500); assay: co-IP
T4 sequence: B1 chain

[6] = molecular target: T5, PRR5-HA (Arabidopsis thaliana) (UniProt Q6LA42); assay: co-IP
T5 sequence: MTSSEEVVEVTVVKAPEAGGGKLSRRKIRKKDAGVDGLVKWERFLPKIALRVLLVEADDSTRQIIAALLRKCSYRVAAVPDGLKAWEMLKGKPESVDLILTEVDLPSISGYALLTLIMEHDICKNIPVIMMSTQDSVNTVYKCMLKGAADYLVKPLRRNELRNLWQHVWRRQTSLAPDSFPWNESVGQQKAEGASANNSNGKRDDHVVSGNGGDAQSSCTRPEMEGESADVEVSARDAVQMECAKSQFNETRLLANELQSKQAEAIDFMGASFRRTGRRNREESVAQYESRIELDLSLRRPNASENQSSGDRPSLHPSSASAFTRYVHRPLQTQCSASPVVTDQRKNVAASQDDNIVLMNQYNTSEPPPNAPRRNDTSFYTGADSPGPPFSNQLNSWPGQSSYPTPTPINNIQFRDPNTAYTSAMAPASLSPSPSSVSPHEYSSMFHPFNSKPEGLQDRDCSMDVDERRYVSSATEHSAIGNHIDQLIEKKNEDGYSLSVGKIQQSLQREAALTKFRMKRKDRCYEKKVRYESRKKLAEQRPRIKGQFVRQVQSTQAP

[7] = molecular target: T6, PRR7-HA (Arabidopsis thaliana) (UniProt Q93WK5); assay: co-IP
T6 sequence: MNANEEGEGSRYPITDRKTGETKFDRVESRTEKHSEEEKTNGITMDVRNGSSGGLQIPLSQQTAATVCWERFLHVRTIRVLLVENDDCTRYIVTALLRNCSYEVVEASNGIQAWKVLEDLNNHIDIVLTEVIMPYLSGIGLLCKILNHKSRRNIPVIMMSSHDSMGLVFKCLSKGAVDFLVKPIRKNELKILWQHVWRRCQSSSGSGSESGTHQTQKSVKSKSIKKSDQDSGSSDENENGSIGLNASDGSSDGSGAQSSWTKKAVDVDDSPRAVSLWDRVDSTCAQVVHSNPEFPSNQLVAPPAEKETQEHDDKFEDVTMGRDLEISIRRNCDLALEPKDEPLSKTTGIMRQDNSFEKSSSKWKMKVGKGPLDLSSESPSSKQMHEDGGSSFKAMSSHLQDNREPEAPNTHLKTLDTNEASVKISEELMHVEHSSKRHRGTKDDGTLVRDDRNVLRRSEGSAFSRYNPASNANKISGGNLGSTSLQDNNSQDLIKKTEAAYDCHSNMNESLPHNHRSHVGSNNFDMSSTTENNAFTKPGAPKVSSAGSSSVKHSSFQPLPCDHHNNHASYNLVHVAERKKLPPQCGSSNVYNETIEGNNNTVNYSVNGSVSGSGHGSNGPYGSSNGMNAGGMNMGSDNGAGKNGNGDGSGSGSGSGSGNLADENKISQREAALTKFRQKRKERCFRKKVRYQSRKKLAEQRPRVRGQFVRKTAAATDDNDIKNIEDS

Molecule	binding [1]	binding [2]	binding [3]	binding [4]	further results
CCA1-HICKING EXPEDITION (two-hybrid prey fusion) (from UniProt Q9FTA2 1-239)	binds	binds	binds		
RVE1 (two-hybrid prey fusion) (from UniProt F4KGY6 1-387)		binds			
TCP20 (two-hybrid prey fusion) (from UniProt Q9LSD5 1-314)	binds	binds	binds		
TCP22 (two-hybrid prey fusion) (from UniProt Q9C7G4 1-375)	binds	binds	binds		
B1				binds	
B2				binds	
B3					binding [5]: binds; binding [6]: binds; binding [7]: binds
B4				no binding	
